Measured values from patent publication US7786054B2, “Biocide for well stimulation and treatment fluids” (Kemira Chemicals, Inc., priority 2006, dated 2010).

Experiment: Friction loop compatibility of biocide with anionic friction reducer

O=S(=O)([O-])[O-].OC[P+](CO)(CO)CO.OC[P+](CO)(CO)CO [THPS, tetra-kis-hydroxymethyly-phosphonium sulfate]
% FR through the last 10 seconds of the test (final % FR) (1000 ppm biocide, control 46.7%): 27.8% | original friction reduction capacity of the polymer eliminated (1,000 ppm dosage): over 40% | drop in absolute friction reduction (1,000 ppm dosage, versus control): 19.9% | % FR relative to control, 150 to 420 second time interval (total biocide loading 1000 ppm, FIG. 6): severe performance degradation of the friction reducer
